Reference: patent US20140255407A1 (MacroGenics, published 2014)

Tests used:
[1] = target: soluble canine B7-H3 with 6xHis tag at the carboxy terminus (canine); assay: SPR, B7H3(4Ig)-His captured on anti-His surface, mAb 6.25-100 nM
[2] = target: soluble canine B7-H3 with 6xHis tag at the carboxy terminus (canine); assay: ELISA, plates coated with soluble B7-H3-His

binding [1]: binds | binding [2]: binds
B1: hBRCA69D (humanized antibody BRCA69D) (antibody, V domains shown)
VH: QVQLVQSGAEVKKPGASVKVSCKASGYTFTSYWMQWVRQAPGQGLEWMGTIYPGDGDTRYTQKFKGRVTITADKSTSTAYMELSSLRSEDTAVYYCARRGIPRLWYFDVWGQGTTVTVSS
VL: DIQMTQSPSSLSASVGDRVTITCRASQDISNYLNWYQQKPGKAPKLLIYYTSRLHSGVPSRFSGSGSGTDFTLTISSLQPEDIATYYCQQGNTLPPTFGGGTKLEIK
notes: Residue limits are my derivation

Results are given in words; binding and its absence hold for the method and conditions named. A result given as binding can be weak or reduced; the word gives no strength.
